We go through 37 sequences from publication PMC7862700.

The chains behind the UniProt entries cited, without tags or fusion partners. Where a name states a change or a piece, a line headed by the entry shows the natural chain unless it says otherwise.
UniProt O43186: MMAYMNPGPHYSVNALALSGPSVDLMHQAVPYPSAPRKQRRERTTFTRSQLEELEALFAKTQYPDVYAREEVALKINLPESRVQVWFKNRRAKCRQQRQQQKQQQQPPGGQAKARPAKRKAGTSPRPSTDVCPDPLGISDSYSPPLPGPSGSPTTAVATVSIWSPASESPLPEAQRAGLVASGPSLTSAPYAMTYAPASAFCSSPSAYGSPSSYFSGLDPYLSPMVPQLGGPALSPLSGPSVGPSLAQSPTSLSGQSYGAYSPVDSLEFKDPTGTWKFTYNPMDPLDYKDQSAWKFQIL

The list shows a part of the results, in another mix than the full data. At the low end of the ranking, values are background and their order means little.

Experiment in all cases: DAPPL (digital affinity profiling via proximity ligation, sequencing)
Common to all, as to conditions: 10 mM Tris-HCl pH 7.5, 50 mM NaCl, 1 mM DTT, 4% glycerol, room temperature, 30 min; GST-TFs on glutathione beads, 16-mer random dsDNA library, 0.1% …; high values mean tight binding; double strand, one strand shown; scale: fold enrichment (6-mer frequency, TF over GST control)

In one assay the target is T1, FEV (UniProt Q99581).
T1 sequence: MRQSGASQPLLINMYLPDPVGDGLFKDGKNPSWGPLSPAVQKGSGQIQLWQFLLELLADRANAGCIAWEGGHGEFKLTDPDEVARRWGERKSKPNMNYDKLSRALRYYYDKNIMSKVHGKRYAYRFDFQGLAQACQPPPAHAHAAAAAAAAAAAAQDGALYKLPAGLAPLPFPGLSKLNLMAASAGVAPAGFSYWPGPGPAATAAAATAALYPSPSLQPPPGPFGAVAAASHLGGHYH

In another assay the target is CRX (UniProt O43186).
For a further assay, the target named is T2, ELF5 (UniProt Q9UKW6-2).
T2 sequence: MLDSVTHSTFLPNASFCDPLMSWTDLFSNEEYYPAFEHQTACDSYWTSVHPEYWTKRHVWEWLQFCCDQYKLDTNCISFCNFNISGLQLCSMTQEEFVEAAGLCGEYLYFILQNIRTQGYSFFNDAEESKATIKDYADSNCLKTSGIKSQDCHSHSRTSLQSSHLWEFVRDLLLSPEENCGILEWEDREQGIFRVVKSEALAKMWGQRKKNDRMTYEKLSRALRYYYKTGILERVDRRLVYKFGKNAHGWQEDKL

Turning to ACCAAC, the binding signal with FEV amounted to 1.19; in the assay with CRX it was 0.924; with ELF5 it was 1.13.
For CCTAGA, in that order: 0.943, 1.22 and 0.986.
For GAACCA, in that order: 0.951, 0.754 and 1.01.
Consider GCTCCA, for which the binding signal with FEV amounted to 1.22; with CRX, 1.01.
For the sequence ATATTA, the binding signal is 1.07 in the assay with FEV, 1.8 in the assay with CRX and 1.09 with ELF5.
As for CACAAT, the binding signal with FEV came out at 1.06; with CRX it was 0.956; in the assay with ELF5, 1.06.
Consider GTCCAC, for which the binding signal turned out to be 1.08 with FEV, 0.627 with CRX and 0.936 with ELF5.
On the same counts, the results for GTTACG are 0.968, 0.818 and 0.987.
On the same counts, the results for TGCTGA are 0.989, 1.04 and 1.
On the same counts, the results for ACACAC are 1.18, 0.898 and 1.16.
Consider GCTCTG, for which the figures for the binding signal with FEV, with CRX and with ELF5 were 1.25, 0.911 and 1.02, respectively.
On the same counts, the results for ACAATC are 1.11, 1.36 and 1.19.
On to GTTCTA, for which the binding signal in the assay with FEV is 1.26; with CRX, 1.59.
As to GGTTTC, the binding signal with FEV stood at 1.55; in the assay with CRX, 0.965; in the assay with ELF5, 1.52.
For TTCAAA, in that order: 1.25, 1.28 and 1.21.
Take TAACCC: the binding signal was 1.26 with FEV and 1.77 in the assay with CRX.
On to GATATA, for which the results for the binding signal with FEV, with CRX and in the assay with ELF5 were 1.08, 1.19 and 1.13, respectively.
With TGTGGA, the binding signal with FEV turned out to be 0.997; with CRX, 1.06.
As for TGTTAT, the binding signal with FEV was 1.34; with CRX it was 1.4; with ELF5, 1.36.
On the same counts, the results for TATGGC are 1.36, 1.34 and 1.23.
For TATTCC, the results for the binding signal in the assay with FEV and with CRX were 1.61 and 1.77, respectively.
With CTAAGC, the binding signal in the assay with FEV stood at 1.05; with CRX, 2.45; with ELF5, 1.07.
For AATTAG, the figures for the binding signal in the assay with FEV and with CRX were 1.07 and 1.69, respectively.
On to AATTGT, for which the binding signal with FEV came to 1.25; with CRX, 1.17; with ELF5, 1.35.
TACTAG: the values for the binding signal with FEV, with CRX and in the assay with ELF5 were 0.974, 1.3 and 0.937, respectively.
For CATTTC, the values for the binding signal with FEV and in the assay with CRX were 2.2 and 0.946, respectively.
As for ACGTTC, the binding signal with FEV worked out at 1.3; in the assay with CRX, 1.28; with ELF5 it was 1.42.
For the sequence TAATAG, the binding signal is 1.18 with FEV, 1.94 with CRX and 1.15 with ELF5.
In the case of CCGATC, the binding signal turned out to be 1.24 in the assay with FEV and 1.36 with CRX.
Turning to GAATAC, the binding signal came to 0.968 with FEV, 0.92 with CRX and 1.03 in the assay with ELF5.
Consider ATTGAT, for which the binding signal with FEV turned out to be 1.25; with CRX it was 1.46; with ELF5, 1.27.
On the same counts, the results for GCTCGT are 1.06, 0.99 and 1.1.
Take CCCATT: the binding signal with FEV amounted to 1.28; in the assay with CRX, 1.19; in the assay with ELF5, 1.4.
For GTTGCA, in that order: 1.11, 0.761 and 1.1.
Turning to GGTCCC, the binding signal with FEV came out at 1.1; with CRX it was 0.818.
As for GAACAT, the binding signal in the assay with FEV came to 1.01; with CRX, 1.03; with ELF5 it was 1.09.
Regarding TTATAG, the binding signal with FEV was 1.17; in the assay with CRX, 2.46; with ELF5, 1.15.
